No constants are given. Whether binding was seen depends on the method and setting.
Molecular target: DnaA domain I (DnaA^DI), Bacillus subtilis, His-tag removed (B. subtilis) (UniProt P05648)
Test: SEC-MALS; Superdex 75 HR 10/30, 50 mM Tris pH 8.5, 200 mM KCl, 0.5 ml min^-1; DnaA^DI at 1.0, 2.5 and 5.0 mg ml^-1; SirA-DnaA^DI at 0.5, 1.0 and 2.5 mg ml^-1; both purified

B1: DnaA domain I (DnaA^DI), Bacillus subtilis, His-tag removed (domain or fragment, B. subtilis)
chain: GPAMENILDLWNQALAQIEKKLSKPSFETWMKSTKAHSLQGDTLTITAPNEFARDWLESRYLHLIADTIYELTGEELSIKFVIPQ
notes: DnaA, B. subtilis, domain I (N-terminal domain); residues 1-81 defined in the crystal, C-terminal Gln82 disordered; Calculated molecular mass 9.7 kDa; also called N-terminal domain of DnaA; not shown: His6, N-terminal, cleaved
- binding: no binding (tested: 1, 2.5 and 5 mg ml^-1)

Source: publication PMC4285326, “Structure and interactions of the Bacillus subtilis sporulation inhibitor of DNA replication, SirA, with domain I of DnaA” (Molecular Microbiology, 2014)
